Measured values reported in publication PMC4075472.
Results are given in words; binding and its absence hold for the method and conditions named. Binding seen in cells or lysates may run through a third protein. A yes stands for co-enrichment or nearness to the bait. Other partners may have been found. Where a sequence is shown, tags or fusion partners need not be part of it. Values belong to the binder of their own block, whether it stands above or below them.

Biological target: T1, CASK-β, full-length wild type, tagged with a C-terminal YFP (Drosophila) (UniProt Q24210)
T1 sequence: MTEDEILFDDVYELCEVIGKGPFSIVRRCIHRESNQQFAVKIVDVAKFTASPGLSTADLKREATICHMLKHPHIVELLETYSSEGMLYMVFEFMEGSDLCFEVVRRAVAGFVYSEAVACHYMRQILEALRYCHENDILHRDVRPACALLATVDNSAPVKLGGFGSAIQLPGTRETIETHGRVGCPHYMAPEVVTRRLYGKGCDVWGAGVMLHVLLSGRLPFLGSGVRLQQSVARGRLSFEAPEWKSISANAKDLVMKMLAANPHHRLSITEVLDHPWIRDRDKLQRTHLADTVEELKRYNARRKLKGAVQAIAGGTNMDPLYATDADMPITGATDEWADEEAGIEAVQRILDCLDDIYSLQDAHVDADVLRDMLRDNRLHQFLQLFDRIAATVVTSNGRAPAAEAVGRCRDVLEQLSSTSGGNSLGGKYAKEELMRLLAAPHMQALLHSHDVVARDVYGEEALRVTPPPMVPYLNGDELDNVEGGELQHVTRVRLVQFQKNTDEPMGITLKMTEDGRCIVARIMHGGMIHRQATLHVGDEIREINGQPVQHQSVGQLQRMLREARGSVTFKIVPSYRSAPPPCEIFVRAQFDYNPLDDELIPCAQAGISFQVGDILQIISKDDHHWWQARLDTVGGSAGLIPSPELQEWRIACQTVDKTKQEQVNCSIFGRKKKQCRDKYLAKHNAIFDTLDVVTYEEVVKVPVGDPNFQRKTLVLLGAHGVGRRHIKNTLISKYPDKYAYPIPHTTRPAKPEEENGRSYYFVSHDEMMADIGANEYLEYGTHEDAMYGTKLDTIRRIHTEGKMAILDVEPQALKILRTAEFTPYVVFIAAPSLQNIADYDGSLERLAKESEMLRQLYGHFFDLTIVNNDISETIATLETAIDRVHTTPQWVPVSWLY
Test: affinity purification with mass spectrometry; as a1, but CASK-YFP expressed with C164-GAL4 (a subset of adult neurons)

B1: ALPHA-ADAPTIN (protein, UniProt P91926 1-940)
chain: MAPVRGDGMRGLAVFISDIRNCKSKEAEVKRINKELANIRSKFKGDKTLDGYQKKKYVCKLLFIFLLGHDIDFGHMEAVNLLSSNKYSEKQIGYLFISVLVNTNSDLIRLIIQSIKNDLQSRNPVHVNLALQCIANIGSRDMAESFSNEIPKLLVSGDTMDVVKQSAALCLLRLFRSSPDIIPGGEWTSRIIHLLNDQHMGVVTAATSLIDALVKRNPDEYKGCVNLAVSRLSRIVTASYTDLQDYTYYFVPAPWLSVKLLRLLQNYNPVTEEAGVRARLNETLETILNKAQEPPKSKKVQHSNAKNAVLFEAINLIIHSDSEPNLLVRACNQLGQFLSNRETNLRYLALESMCHLATSEFSHEEVKKHQEVVILSMKMEKDVSVRQMAVDLLYAMCDRGNAEEIVQEMLNYLETADYSIREEMVLKVAILAEKYATDYTWYVDVILNLIRIAGDYVSEEVWYRVIQIVINREEVQGYAAKTVFEALQAPACHENMVKVGGYILGEFGNLIAGDSRSAPLVQFKLLHSKYHLCSPMTRALLLSTYIKFINLFPEIRTNIQDVFRQHSNLRSADAELQQRASEYLQLSIVASTDVLATVLEEMPSFPERESSILAVLKKKKPGRVPENEIRESKSPAPLTSAAQNNALVNNSHSKLNNSNANTDLLGLSTPPSNNIGSGSNSNSTLIDVLGDMYGSNSNNNSSAVYNTKKFLFKNNGVLFENEMLQIGVKSEFRQNLGRLGLFYGNKTQVPLTNFNPVLQWSAEDALKLNVQMKVVEPTLEAGAQIQQLLTAECIEDYADAPTIEISFRYNGTQQKFSIKLPLSVNKFFEPTEMNAESFFARWKNLSGEQQRSQKVFKAAQPLDLPGARNKLMGFGMQLLDQVDPNPDNMVCAGIIHTQSQQVGCLMRLEPNKQAQMFRLTVRASKETVTREICDLLTDQF
binding: binds

B2: EIF3-S10 (protein, UniProt Q9VN25 1-1140)
chain: MARYTQRPENALKRANEFIEVGKPLRALDTLQEVFRNKRWNYAYSETVIEPLMFKYLYLCVELKKSHIAKEGLFQYRNMFQLVNVNSLENVIRGYLKMAEEHTEAAQAQSSAAVAVLELDDLDNIATPESILMSAVCGEDAQDRSDRTILLPWVKFLWESYCQCLELLRVNTHCEALYHDIARMAFQFCLKYNRKSEFRRLCDKLRKHLEDICKSSNQTTGVSINKVETQQLCLDTRLYLLDSAIQMELWQEAYKAIEDIHGLMALSKKTPVPKTMANYYQKLAMVFSKAGNQLFHAAALLKLFQLTRELKKNLTKDDLQRMAAHVLLATLSIPLPSAHPEFDRFIEADKSPLEKAQKLAVLLGLPQPPTRVSLIREVVRLNVPQLVSEDFRNLYNWLEVDFNPLNLCKRIQSIVDFIENGPENALLTPYIQSLKDVTIMRLIRQISQVYESIKFQRLLQLASFCNIFELEKLLVESVRHNDMQIRIDHQKNSIYFGTDLTESQREYRPDGPALQSMPSEQIRSQLVNMSTVLTRAVSIVYPNRERDQRAKLRNQMVNHYHEIKDREHQRILQRQKIIEDRKEYIEKQNNAREEEEARRQEEESRKAKLAEQKRLEQEQEERERKRHQNEIQAIREKSLKEKVQQISQTAHGKKMLSKLDEEGIKKLDAEQIAKRESEELQREAKELQSKLKSQEKKIDYFERAKRLEEIPLFEKYLAEKQVKDKEFWEATEKTRIENAIAERKDAVAQQERLKRMYPDRDEFLEALKKERASLYVEKLKKFEAALEAERKKRLADRIIRRREERRQAFLREKEEERLRKEEEIRLAQAAEERAAAEARRLEREAEDEKRRAQYEKQRAKEEEAERKIKEDRDRLSRELASERERTEKDRDTWRPRGGDRPSASNGGSSEWRRAAPAASERNDRGGERIERGGERIERGGERLERGGERIERGGDRDRKDNEGADSSWRVRREPDSQRAAAPKDSGAPQSRDDKWRRGGERDRDFRIDGARRDRDDGPRRDRDDGPRRDRDDERGGFRRADGARRTDEPQRETGGNWRDAPRHADRETRRPAERRDRDVRETRGDQRGSAPKEAASGGVGGNWRTAPATREEKPAAKRDQAQEKENKAGDDGEWTSVKRR
binding: binds

Further lines, results first:

binding: binds
B3: NK3 (protein, UniProt P22809 1-382)
chain: MLNMESAGVSAAMAGLSKSLTTPFSINDILTRSNPETRRMSSVDSEPEPEKLKPSSDRERSISKSPPLCCRDLGLYKLTQPKEIQPSARQPSNYLQYYAAAMDNNNHHHQATGTSNSSAADYMQRKLAYFGSTLAAPLDMRRCTSNDSDCDSPPPLSSSPSESPLSHDGSGLSRKKRSRAAFSHAQVFELERRFAQQRYLSGPERSEMAKSLRLTETQVKIWFQNRRYKTKRKQIQQHEAALLGASKRVPVQVLVREDGSTTYAHMAAPGAGHGLDPALINIYRHQLQLAYGGLPLPQMQMPFPYFYPQHKVPQPIPPPTQSSSFVTASSASSSPVPIPIPGAVRPQRTPCPSPNGQMMSVESGAESVHSAAEDVDENVEID

binding: binds
B4: AGO2 (protein, UniProt Q9VUQ5 1-1214)
chain: MGKKDKNKKGGQDSAAAPQPQQQQKQQQQRQQQPQQLQQPQQLQQPQQLQQPQQQQQQQPHQQQQQSSRQQPSTSSGGSRASGFQQGGQQQKSQDAEGWTAQKKQGKQQVQGWTKQGQQGGHQQGRQGQDGGYQQRPPGQQQGGHQQGRQGQEGGYQQRPPGQQQGGHQQGRQGQEGGYQQRPSGQQQGGHQQGRQGQEGGYQQRPPGQQQGGHQQGRQGQEGGYQQRPSGQQQGGHQQGRQGQEGGYQQRPPGQQQGGHQQGRQGQEGGYQQRPPGQQQGGHEQGRQGQEGGYQQRPSGQQQGGHQQGRQGQEGGYQQRPSGQQQGGHQQGRQGQEGGYQQRPSGQQQGGHQQGRQGQEGGYQQRPPGQQPNQTQSQGQYQSRGPPQQQQAAPLPLPPQPAGSIKRGTIGKPGQVGINYLDLDLSKMPSVAYHYDVKIMPERPKKFYRQAFEQFRVDQLGGAVLAYDGKASCYSVDKLPLNSQNPEVTVTDRNGRTLRYTIEIKETGDSTIDLKSLTTYMNDRIFDKPMRAMQCVEVVLASPCHNKAIRVGRSFFKMSDPNNRHELDDGYEALVGLYQAFMLGDRPFLNVDISHKSFPISMPMIEYLERFSLKAKINNTTNLDYSRRFLEPFLRGINVVYTPPQSFQSAPRVYRVNGLSRAPASSETFEHDGKKVTIASYFHSRNYPLKFPQLHCLNVGSSIKSILLPIELCSIEEGQALNRKDGATQVANMIKYAATSTNVRKRKIMNLLQYFQHNLDPTISRFGIRIANDFIVVSTRVLSPPQVEYHSKRFTMVKNGSWRMDGMKFLEPKPKAHKCAVLYCDPRSGRKMNYTQLNDFGNLIISQGKAVNISLDSDVTYRPFTDDERSLDTIFADLKRSQHDLAIVIIPQFRISYDTIKQKAELQHGILTQCIKQFTVERKCNNQTIGNILLKINSKLNGINHKIKDDPRLPMMKNTMYIGADVTHPSPDQREIPSVVGVAASHDPYGASYNMQYRLQRGALEEIEDMFSITLEHLRVYKEYRNAYPDHIIYYRDGVSDGQFPKIKNEELRCIKQACDKVGCKPKICCVIVVKRHHTRFFPSGDVTTSNKFNNVDPGTVVDRTIVHPNEMQFFMVSHQAIQGTAKPTRYNVIENTGNLDIDLLQQLTYNLCHMFPRCNRSVSYPAPAYLAHLVAARGRVYLTGTNRFLDLKKEYAKRTIVPEFMKKNPMYFV

binding: binds
B5: EIF3-S9 (protein, UniProt Q0E940 1-690)
chain: MAKKKSEEHSGTDANDSDYQEEPNFDDPPGFVDNISDEDLLGDMLAQRPSEADGVESVVVVDNIPKVEPVRLEKLKLVINKLFSNYGEIVNVVYPVDEEGKTKGYAFMEYKQARQAEEAVKKLNNHRLDKNHTFAVNLFTDFQKYENIPEKWEPPTVQTFKVQSDLYNFINDPDTYDQYCVAAETAPNCVQVGFWQNVLPEPFELETRERFTDTFVKWSPLGTYVVTFHKPGVAIWGGSSFQKIQKFPHPGTQFVEFSPCENYLVTYGPTPTGQKIIIWDIRTGAEKRSFVADGMSVLSMFRWSHDDKFVARMGENSIHIYETPSFYLLDLKSIKIPGIRGFSWSPTDNVIAYWVEEQNQIPARVTLMEIPKKREIRNKNLFHVADCKLHWQKSGDYLCVKVDRYSKLKKDKKDLDVKFLGMFYNFEIFHMREKEIPVDSVEIRELILAFAWEPVGNKFSIIHGETNSSNVSFYEVNKGVKPSLVKRLEKKSCTHLFWSPRGQFIVMANLTMGTFEFVDSTNDYIITASPDHFRASEVEWDPTGRYVVTGVSSWKVKEDTGFNMYTFQGRIIKRTILKNFVQFLWRPRPPTLLSEEKQKEIKKNLKKYYAAFEQKDRLRLTRASKELLEKRSQLRETFMEYRNKRIAEWAEQKSRRIMLRGHVDTDNLETDEVDEEIVEFLVKEEVTLLE
